Values of other authors, collected in patent publication US11635434B2, “Betaretrovirus epitopes and related methods of use” (priority 2018, dated 2023).
At least one structure is not confirmed: it was looked up by name or label, or the drawing left a doubt.

Test system: PBC subjects
Conditions: PBC subjects unresponsive to UDCA; cited from earlier work

CC[C@H]1[C@@H](O)[C@@H]2[C@H](CC[C@]3(C)[C@@H]([C@H](C)CCC(=O)O)CC[C@@H]23)[C@@]2(C)CC[C@@H](O)C[C@@H]12 [obeticholic acid (OCA), obeticholic acid]
subjects achieving the composite endpoints of improved hepatic biochemistry: 46%
